Patent US20230348487A1, “2-AMINOPYRIMIDINE COMPOUND AND PHARMACEUTICAL COMPOSITION THEREOF AND APPLICATION THEREOF” (GUANGZHOU SALUSTIER BIOSCIENCES CO., LTD., priority 2021, published 2023)

Legend:
Assay in all cases: CCK-8 in vitro proliferation inhibition
Format in all cases: cell-based
[1] = test system: human T lymphoblastic lymphoma cell line Jurkat; conditions: 72 hours, read-out: Inhibitory activity (IC50) on cell proliferation, JURKAT
Description: (§1) Cell lines: human chronic myeloid leukemia cell line K562, human acute myeloid leukemia cell line U937, human T lymphocyte leukemia cell line HuT78, and human T lymphoblastic lymphoma cell line Jurkat. Cells were purchased from the Chinese Academy of Sciences Stem Cell Bank or ATCC.
(§2) […] were cultured overnight and suspended cells were directly stimulated with drugs. […] Two repeats were set for each concentration, with a final volume of 200 μL. […] The absorbance values at 450 nm and 650 nm were measured using a microplate reader, and the increment Z (A450-A650) was derived. The inhibitory rate of drugs on cell growth was calculated by GraphPad Prism 8.0.0 through the following formula:
(§3) Inhibition rate (%)(ODcontrol−ODdosing)/ODcontrol×100%
(§4) The half inhibitory concentration (IC50) was calculated. Every experiment was repeated at least three times.

[2] = test system: human T lymphocyte leukemia cell line HuT78; conditions: 72 hours, read-out: Inhibitory activity (IC50) on cell proliferation, HUT78
Description: as §1, §2, §3, §4

[3] = test system: human chronic myeloid leukemia cell line K562; conditions: 72 hours, read-out: Inhibitory activity (IC50) on cell proliferation, K562
Description: as §1, §2, §3, §4

## C[C@@H]1CCN(C(=O)CC#N)C[C@@H]1N(C)c1ncnc2[nH]ccc12 [Tofacitinib, reference compound]
[1]
  IC50: > 30 µM
[2]
  IC50: > 30 µM
[3]
  IC50: 21.7 µM
